# In paper PMC7519109:
# Protein sequences, listed by entry. Tags and fused reporters are not part of them. Residues count along the entry.
# UniProt P37173, residues 23-567: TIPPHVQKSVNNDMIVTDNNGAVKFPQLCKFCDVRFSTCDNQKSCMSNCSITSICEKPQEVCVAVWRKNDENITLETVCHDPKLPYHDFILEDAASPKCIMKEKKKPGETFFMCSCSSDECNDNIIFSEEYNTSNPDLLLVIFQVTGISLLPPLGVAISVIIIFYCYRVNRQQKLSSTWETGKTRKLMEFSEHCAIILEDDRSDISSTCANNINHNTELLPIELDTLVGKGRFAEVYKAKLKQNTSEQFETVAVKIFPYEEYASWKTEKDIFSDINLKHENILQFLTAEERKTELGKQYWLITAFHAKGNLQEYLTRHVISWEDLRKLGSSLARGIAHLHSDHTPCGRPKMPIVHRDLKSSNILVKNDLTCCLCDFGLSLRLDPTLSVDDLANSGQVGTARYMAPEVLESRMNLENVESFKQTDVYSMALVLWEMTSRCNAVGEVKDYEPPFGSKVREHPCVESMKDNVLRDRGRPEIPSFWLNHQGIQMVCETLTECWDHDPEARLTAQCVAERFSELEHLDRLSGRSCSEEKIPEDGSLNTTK
# Results are given in words; binding and its absence hold for the method and conditions named. In cells and extracts the contact can be indirect. Some binding calls cover weakened binding; strength is not graded here. Tags and fused reporters may be left off the sequences shown.
# Biological target: T1, FLAG-OTUD4 (human) (UniProt Q01804)
# T1 sequence: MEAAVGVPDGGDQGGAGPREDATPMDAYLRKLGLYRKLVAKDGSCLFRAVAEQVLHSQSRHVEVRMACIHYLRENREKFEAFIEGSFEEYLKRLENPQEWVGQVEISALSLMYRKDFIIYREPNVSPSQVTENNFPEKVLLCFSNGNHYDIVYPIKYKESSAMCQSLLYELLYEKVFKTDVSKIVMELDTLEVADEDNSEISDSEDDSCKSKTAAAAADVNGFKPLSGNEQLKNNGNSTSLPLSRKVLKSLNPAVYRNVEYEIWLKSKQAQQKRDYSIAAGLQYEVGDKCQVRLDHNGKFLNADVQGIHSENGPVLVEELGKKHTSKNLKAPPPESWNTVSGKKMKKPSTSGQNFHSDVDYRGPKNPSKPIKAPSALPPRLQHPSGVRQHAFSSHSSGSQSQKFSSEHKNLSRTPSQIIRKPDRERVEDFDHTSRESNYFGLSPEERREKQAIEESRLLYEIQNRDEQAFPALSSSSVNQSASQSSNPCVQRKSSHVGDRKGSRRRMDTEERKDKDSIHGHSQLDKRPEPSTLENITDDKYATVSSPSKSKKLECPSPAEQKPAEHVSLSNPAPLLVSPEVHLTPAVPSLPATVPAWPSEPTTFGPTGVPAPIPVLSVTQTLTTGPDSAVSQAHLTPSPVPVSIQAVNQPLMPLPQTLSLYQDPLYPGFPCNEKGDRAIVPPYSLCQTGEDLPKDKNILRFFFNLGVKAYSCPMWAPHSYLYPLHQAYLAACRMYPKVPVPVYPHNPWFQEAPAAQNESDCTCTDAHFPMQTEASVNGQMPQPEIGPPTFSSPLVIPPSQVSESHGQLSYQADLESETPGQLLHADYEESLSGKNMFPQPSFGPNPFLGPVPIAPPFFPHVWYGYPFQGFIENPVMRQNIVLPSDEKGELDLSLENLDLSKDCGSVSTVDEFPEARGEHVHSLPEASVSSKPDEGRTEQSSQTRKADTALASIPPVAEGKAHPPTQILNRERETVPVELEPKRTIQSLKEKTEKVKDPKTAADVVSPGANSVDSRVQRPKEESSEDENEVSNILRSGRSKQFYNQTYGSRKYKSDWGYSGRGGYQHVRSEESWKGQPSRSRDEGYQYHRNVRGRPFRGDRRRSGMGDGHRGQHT
# Experiment: co-IP; HEK293T cells co-transfected; lysed after 48 h in ELB (0.25 M NaCl, 0.5% NP-40, 50 mM HEPES pH 7.3); lysate incubated overnight with antibody (anti-TβRI or anti-OTUD4), protein A or G sepharose, three washes in ELB; Western blot
substance,measurement,value
TGFβ receptor II (from UniProt P37173 23-567),binding,binds
